Source: patent US20210322333A1, “Lignin-PLGA Biopolymers and Nanoparticles, and their Synthesis and Use” (Board of Supervisors of Louisiana State University and …, priority 2018, published 2021)
Entries after “also recorded” stand apart in the source; their conditions may differ. At least one structure is not confirmed: it was looked up by name or label, or the drawing left a doubt.

System: MDA-MB-231 cell line
Experiment: Cell morphology / reversal of epithelial-to-mesenchymal transition
Format: cell-based
Conditions: 1 nM for qPCR, 100 nM for morphology

Q: `O=C(NOCCO)c1ccc2cncn2c1Nc1ccc(I)cc1F` [GDC-0623] was tested. Which “reversal of epithelial-to-mesenchymal transition (EMT)” value did it give?
A: can reverse EMT; also recorded: reversed epithelial-to-mesenchymal transition (EMT)
